This is one part of the list. The main result of the screen is listed elsewhere. These columns were measured beside it and carry no call. The list favours compounds with an active or inconclusive main result. Words in brackets tell the shape of the fitted curve; partial curves, single points and poor fits give uncertain potencies.
Experiment: qHTS Assay to Find Inhibitors of Chronic Active B-Cell Receptor Signaling
Conditions: ABC-DLBCL IkBa-CBG/CBR reporter, luminescence ratio (green luciferase fused to IkBa over red control in TMD8 lymphoma cells), 4 h
Procedure, shortened: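 Compounds up to 46 uM were incubated four hours with TMD8 cells whose green CBG68 luciferase is fused to IkappaBalpha; red CBR luminescence normalised the signal, and concentration-effect curves were fitted to fusion, red and ratio data.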

[1] = measured here: CBR red luminescence, cell number
[2] = measured here: IkBa-CBG green luminescence

SMILES | AC50 [1] | AC50 [2]
Cc1ccc(-c2nnc(N(C)C(=O)c3ccccn3)s2)cn1 | 0.00517 µM [rising, full curve, poor fit] | –
CN(Cc1ccc(Cl)cc1)C(=O)CCl | 11.2 µM [falling, partial curve, poor fit] | –
Oc1ccccc1N=Cc1c(O)ccc2ccccc12 | 10 µM [falling, partial curve] | –
Cc1nc2c(oc3ccc(Cl)cc32)c(=O)[nH]1 | 10 µM [falling, partial curve, poor fit] | –
COc1cc(CNc2ccc(CNc3ncn[nH]3)cc2)cc(Cl)c1OCc1ccccc1 | 29.1 µM [falling, single point] | –
CC1(C)Cc2ccccc2C(NNC(=O)c2ccccc2)=N1 | 6.31 µM [falling, full curve] | –
N#CCSc1nnc(Cc2cccc3ccccc23)n1C1CCCCC1 | 35.5 µM [falling, single point] | –
CCOC(=O)CC1=C(C(=O)OCC)C(c2ccncc2)C(C#N)=C(N)O1 (centres undefined) | 35.5 µM [falling, single point] | –
COc1ccccc1C(=O)NC(CCSC)C(=O)NNC(=O)C(C)Oc1ccccc1F (centres undefined) | 23.1 µM [falling, partial curve] | –
COc1cc(OC)c(NC(=O)CSc2nc3ccncc3[nH]2)cc1Cl | 4.11 µM [rising, full curve, poor fit] | –
CNC(=S)NNC(=O)c1cn(C)nc1C | 12.6 µM [falling, partial curve] | –
CCC(NC(=S)NCc1ccc(F)cc1)c1ccc(C(C)C)cc1 (centres undefined) | 20 µM [falling, single point] | –
Cc1ccc(C)c2sc(NC(=O)c3nc4ccccc4s3)nc12 | 0.058 µM [falling, full curve] | –
CCc1ccc(Nc2ccc(C(=O)O)cc2[N+](=O)[O-])cc1 | 28.2 µM [falling, single point] | –
Cc1nn(-c2ccccc2)c(C)c1/C=N/NC(=O)c1cc(-c2cccc3ccccc23)n[nH]1 | 11.6 µM [rising, partial curve] | –
COc1ccccc1-c1nnc(SCC(=O)Nc2ccc(N3CCOCC3)cc2)n1N | 29.1 µM [rising, single point] | –
CCCCSc1cc(C)nc(N)n1 | 22.4 µM [rising, partial curve, poor fit] | –
COc1cccc(NC(=O)c2ccccc2OCc2c(C)noc2C)c1 | 2.06 µM [rising, partial curve, poor fit] | –
c1ccc(Cn2cc(-c3cccnc3)cn2)cc1 | 29.1 µM [falling, single point] | –
O=C(Nc1ccccc1)c1ccc(NCCc2ccccc2)c([N+](=O)[O-])c1 | 1.46 µM [rising, full curve, poor fit] | –
O=C(N/N=C/c1ccsc1)c1ccccn1 | 10 µM [falling, partial curve] | –
COc1cc2sc3ccc(-c4ccc(CN5CCOCC5)cc4)cc3c(=O)c2cc1OC | 8.2 µM [falling, partial curve, poor fit] | –

SMILES | AC50 [1] | AC50 [2]
O=C(CC1Nc2ccccc2NC1=O)c1ccccc1 (centres undefined) | 2.51 µM [falling, full curve] | –
O=C(NCc1n[nH]c(=O)c2ccccc12)C1CC(=O)N(c2ccc(Cl)cc2)C1 (centres undefined) | 20.6 µM [falling, single point] | –
COc1cc(C(=O)NCc2nnc(SCC(=O)Nc3nc4ccccc4s3)o2)cc(OC)c1OC | – | 23.1 µM [falling, single point]
CC(=O)c1ccc(Nc2ccc(-c3ccccc3F)nn2)cc1 | 35.5 µM [falling, single point] | –
CC[C@]12c3[nH]c4ccc(OC)cc4c3CCN1C(=O)C(CC(=O)NCC13CC4CC(CC(C4)C1)C3)C[C@@H]2C(=O)N1CCN(C(=O)c2ccco2)CC1 (some centres undefined) | 11.6 µM [falling, partial curve] | –
CCOC(=O)c1c(C)n(C)c2cc(-c3cccc(C(F)(F)F)c3)c(O)cc12 | 23.1 µM [rising, single point] | –
CC(=O)Nc1cc(-c2nc3ccccc3o2)ccc1Cl | 3.55 µM [rising, full curve, poor fit] | –
O=C1C2C3C=CC(CO)(O3)C2C(=O)N1c1ccccc1-c1ccccc1 (centres undefined) | 5.01 µM [falling, partial curve] | –
Cc1[nH]c2ccccc2c1C(=O)C(C)OC(=O)c1ccc([N+](=O)[O-])o1 (centres undefined) | 35.5 µM [falling, single point] | –
CCc1ccccc1NC(=O)c1ccc(-c2csc(C)n2)cc1 | 2.24 µM [falling, full curve] | –
COC(=O)c1cccc(NC(=O)c2onc3c2CCCC3)c1 | 20.6 µM [falling, single point] | –
COc1cc(-c2nc(C)c(C(C)=O)n2O)ccc1OCC(=O)Nc1ccc(F)cc1 | 10 µM [falling, partial curve, poor fit] | –
Cc1onc(-c2ccccc2Cl)c1C(=O)Nc1cccc(S(=O)(=O)N2CCOCC2)c1 | 20.6 µM [rising, partial curve, poor fit] | –
Cc1ccc(CN2CCN(C/C=C/c3ccc(F)cc3)CC2CCO)o1 (centres undefined) | 14.1 µM [falling, single point] | –
O=C(COC(=O)c1ccc(O)cc1O)Nc1ccc(Cl)cn1 | 6.31 µM [falling, single point] | –
Cc1cccc(C)c1NC(=S)NCCc1ccc(O)c(O)c1 | 15.8 µM [falling, single point] | –
O=c1[nH]c(C2CCN(S(=O)(=O)c3ccc4c(c3)OCCO4)CC2)nc2c1nnn2Cc1cccc(F)c1 | 35.5 µM [falling, single point] | –
COc1ccc(-n2c(C)cc(/C=C3\SC(=O)NC3=O)c2C)cc1 | 25.1 µM [rising, single point] | –
CCOC(=O)N1CCC(Nc2nc3ccccc3nc2NS(=O)(=O)c2ccc(Cl)cc2)CC1 | 1.16 µM [falling, full curve] | –
CCOC(=O)c1[nH]c2ccc(OC)cc2c1NC(=O)CCN1CCC(C)CC1 | 3.26 µM [rising, partial curve, poor fit] | –
O=C(Nc1ncc(Cc2ccc(SC(F)F)cc2)s1)c1ccccc1 | 31.6 µM [rising, single point] | 10 µM [falling, partial curve]
Cc1ccccc1N1C(=O)c2cccc3cccc(c23)C1=O | 12.6 µM [rising, single point] | –

SMILES | AC50 [1] | AC50 [2]
CSc1nccc(N/N=C/c2ccccc2)n1 | 2.24 µM [falling, full curve] | –
Fc1ccc2nc(Nc3nc4c(F)cccc4s3)sc2c1 | 32.6 µM [falling, single point] | –
CSc1cccc(NC(=O)C(=O)NCc2ccccc2)c1 | 6.31 µM [falling, single point] | –
CCCCCc1n[nH]c2c1CCCC2 | 35.5 µM [rising, single point] | –
CCOC(=O)C1CCN(S(=O)(=O)c2ccc(CNC(=O)c3ccccc3)s2)CC1 | 17.8 µM [falling, single point] | –
Cc1ccc(S(=O)(=O)Nc2ccc3c(c2)nc(CCN2CCCC2)n3C)cc1 | 25.1 µM [falling, single point] | –
N#Cc1cc2c(nc1SCc1ccncc1)CCC2 | 36.6 µM [falling, partial curve, poor fit] | –
CC(=O)N[C@@H](CS)C(=O)O | 2.31 µM [rising, partial curve] | –
COC(=O)/C(C#N)=C/N(C)C | 15.8 µM [rising, single point] | –
CCN(CC)c1cccc(OC2=NS(=O)(=O)c3ccccc32)c1 | 12.6 µM [falling, partial curve, poor fit] | –
Cc1ccnc(NC(=O)/C=C/c2ccccc2[N+](=O)[O-])c1 | 12.6 µM [falling, single point] | –
O=C(c1ccc2nc[nH]c2c1)N1CCN(c2cccc(Cl)c2)CC1 | 25.1 µM [rising, single point] | 17.8 µM [falling, partial curve, poor fit]
O=C(O)C1C2CCC(O2)C1C(=O)Nc1ccc(Cl)cc1F (centres undefined) | 35.5 µM [rising, single point] | –
CCSc1nnc(NC(=O)c2cccc(OCc3c(C)noc3C)c2)s1 | 22.4 µM [falling, single point] | –
Cc1ccc(NC(=O)N2CCc3ccccc32)cc1C | 12.6 µM [falling, partial curve, poor fit] | –
CN1C(=O)S/C(=C\c2ccccc2OCc2ccc(C(=O)O)cc2)C1=O | 7.08 µM [falling, full curve, poor fit] | –
COc1ccccc1CNC(=O)CSC(=S)N1CCCC1 | 18.4 µM [rising, partial curve] | 16.4 µM [falling, partial curve]
O=C(c1ccco1)N(CCC(c1ccccc1)c1ccco1)Cc1ccccc1 (centres undefined) | 20.6 µM [falling, single point] | –
COc1ccc(C(=O)c2ccc(N3CCN(C(=O)c4ccc(F)cc4)CC3)c(F)c2)cc1Br | 1.64 µM [rising, single point] | –
COc1ccc(CCNC(=O)c2cc(-c3ccc(C)cc3O)n[nH]2)cc1OC | 1.46 µM [falling, full curve, poor fit] | –
CC(=O)c1ccc(NC(=O)C2CCC(C)NC2=O)cc1 (centres undefined) | 0.326 µM [falling, partial curve, poor fit] | –
Cc1csc2ncnc(N3CCN(C(=S)Nc4ccc(F)cc4F)CC3)c12 | 1.26 µM [rising, partial curve, poor fit] | –

Molecules above with an NH in an aromatic ring, in the order listed:
SMILES | AC50 [1] | AC50 [2]
Cc1nc2c(oc3ccc(Cl)cc32)c(=O)[nH]1 | 10 µM [falling, partial curve, poor fit] | –
COc1cc(CNc2ccc(CNc3ncn[nH]3)cc2)cc(Cl)c1OCc1ccccc1 | 29.1 µM [falling, single point] | –
COc1cc(OC)c(NC(=O)CSc2nc3ccncc3[nH]2)cc1Cl | 4.11 µM [rising, full curve, poor fit] | –
Cc1nn(-c2ccccc2)c(C)c1/C=N/NC(=O)c1cc(-c2cccc3ccccc23)n[nH]1 | 11.6 µM [rising, partial curve] | –
O=C(NCc1n[nH]c(=O)c2ccccc12)C1CC(=O)N(c2ccc(Cl)cc2)C1 (centres undefined) | 20.6 µM [falling, single point] | –
CC[C@]12c3[nH]c4ccc(OC)cc4c3CCN1C(=O)C(CC(=O)NCC13CC4CC(CC(C4)C1)C3)C[C@@H]2C(=O)N1CCN(C(=O)c2ccco2)CC1 (some centres undefined) | 11.6 µM [falling, partial curve] | –
Cc1[nH]c2ccccc2c1C(=O)C(C)OC(=O)c1ccc([N+](=O)[O-])o1 (centres undefined) | 35.5 µM [falling, single point] | –
O=c1[nH]c(C2CCN(S(=O)(=O)c3ccc4c(c3)OCCO4)CC2)nc2c1nnn2Cc1cccc(F)c1 | 35.5 µM [falling, single point] | –
CCOC(=O)c1[nH]c2ccc(OC)cc2c1NC(=O)CCN1CCC(C)CC1 | 3.26 µM [rising, partial curve, poor fit] | –
CCCCCc1n[nH]c2c1CCCC2 | 35.5 µM [rising, single point] | –
O=C(c1ccc2nc[nH]c2c1)N1CCN(c2cccc(Cl)c2)CC1 | 25.1 µM [rising, single point] | 17.8 µM [falling, partial curve, poor fit]
COc1ccc(CCNC(=O)c2cc(-c3ccc(C)cc3O)n[nH]2)cc1OC | 1.46 µM [falling, full curve, poor fit] | –

Reference: PubChem BioAssay AID493014 (National Center for Advancing Translational Sciences (NCATS), 2011)
